This note sets out measurements from PMC12847318.

By UniProt entry, the sequences of proteins in these tests, tags left out. Where a name states a change or a piece, a line headed by the entry shows the natural chain unless it says otherwise.
UniProt Q13507: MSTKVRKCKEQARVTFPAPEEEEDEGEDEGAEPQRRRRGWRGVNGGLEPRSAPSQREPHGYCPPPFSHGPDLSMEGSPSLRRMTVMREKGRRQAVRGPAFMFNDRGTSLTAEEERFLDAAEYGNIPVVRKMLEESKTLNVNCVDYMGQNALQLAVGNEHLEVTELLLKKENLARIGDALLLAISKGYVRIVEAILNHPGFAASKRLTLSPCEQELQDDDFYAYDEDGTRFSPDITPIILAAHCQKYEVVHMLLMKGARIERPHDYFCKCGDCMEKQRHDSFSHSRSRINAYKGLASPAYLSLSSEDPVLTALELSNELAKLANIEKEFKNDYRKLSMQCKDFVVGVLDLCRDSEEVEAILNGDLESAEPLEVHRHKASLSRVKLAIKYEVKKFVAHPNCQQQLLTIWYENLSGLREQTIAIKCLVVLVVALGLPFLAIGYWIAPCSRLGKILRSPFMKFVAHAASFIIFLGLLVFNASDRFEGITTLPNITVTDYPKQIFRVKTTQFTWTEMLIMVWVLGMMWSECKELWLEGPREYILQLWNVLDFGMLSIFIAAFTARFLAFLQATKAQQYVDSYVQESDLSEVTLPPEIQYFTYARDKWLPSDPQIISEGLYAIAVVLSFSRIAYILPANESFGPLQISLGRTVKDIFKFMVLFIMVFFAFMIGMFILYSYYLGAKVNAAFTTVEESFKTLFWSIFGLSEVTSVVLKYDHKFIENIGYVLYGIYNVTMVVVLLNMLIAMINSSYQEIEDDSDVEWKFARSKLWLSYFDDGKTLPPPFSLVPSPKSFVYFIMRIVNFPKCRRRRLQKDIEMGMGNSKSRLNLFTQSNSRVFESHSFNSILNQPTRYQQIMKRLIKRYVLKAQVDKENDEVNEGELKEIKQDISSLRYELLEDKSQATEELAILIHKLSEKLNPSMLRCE
UniProt Q02156: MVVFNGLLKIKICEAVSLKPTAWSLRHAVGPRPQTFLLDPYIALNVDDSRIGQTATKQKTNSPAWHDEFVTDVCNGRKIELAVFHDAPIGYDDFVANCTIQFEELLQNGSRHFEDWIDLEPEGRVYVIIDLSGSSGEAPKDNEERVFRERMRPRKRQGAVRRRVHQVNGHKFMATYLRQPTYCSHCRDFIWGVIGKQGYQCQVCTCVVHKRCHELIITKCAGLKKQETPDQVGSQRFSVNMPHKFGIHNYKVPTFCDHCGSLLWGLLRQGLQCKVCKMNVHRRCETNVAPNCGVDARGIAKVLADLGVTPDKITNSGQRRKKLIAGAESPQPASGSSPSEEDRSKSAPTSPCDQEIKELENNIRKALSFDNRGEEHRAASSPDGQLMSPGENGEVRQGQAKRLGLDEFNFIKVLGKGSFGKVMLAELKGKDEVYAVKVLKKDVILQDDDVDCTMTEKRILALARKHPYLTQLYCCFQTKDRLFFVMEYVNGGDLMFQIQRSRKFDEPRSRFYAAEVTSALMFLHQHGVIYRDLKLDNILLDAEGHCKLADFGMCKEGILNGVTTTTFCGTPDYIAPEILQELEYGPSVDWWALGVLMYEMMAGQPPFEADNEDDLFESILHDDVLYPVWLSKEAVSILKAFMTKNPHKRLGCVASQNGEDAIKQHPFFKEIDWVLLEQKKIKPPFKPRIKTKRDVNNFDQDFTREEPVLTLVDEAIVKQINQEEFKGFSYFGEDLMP

The assay concerns the target Human TRPC3 (eYFP-hTRPC3) (human) (UniProt Q13507). The experiment in a line: FRET or BRET; acceptor photobleaching FRET (mCherry bleached in ROIs, eYFP read) by confocal microscopy in HEK-TLR4 cells co-expressing TRPC3-eYFP and a PKC-mCherry, treated with PMA for 10 min; positive control eYFP-mCherry fusion, negative control eYFP and mCherry co-expressed separately.

These are yes or no findings as the source states them, for the method shown. In cells and extracts the contact can be indirect. Binding calls can cover weak binding; strength is not graded here.

As to “PKCα-mCherry (from UniProt P17252 1-672) (enzyme)”, the binding result is given as “binds”. For the substance “PKCϵ-mCherry (from UniProt Q02156 1-737) (enzyme)”, the binding result is “binds”.
